According to PubChem BioAssay AID2685 (National Center for Advancing Translational Sciences (NCATS), 2010):
The other results are listed elsewhere or left out. These are further read-outs of the screen, such as a control signal, another cell line or another target. No call is given for them. The list favours compounds with an active or inconclusive main result. Words in brackets tell the shape of the fitted curve; partial curves, single points and poor fits give uncertain potencies.

Test: qHTS Assay for Lipid Storage Modulators in Drosophila S3 Cells;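 for cell number change: cells counted by Cell Tracker Red CMTPX staining in the red channel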
Settings: BODIPY lipid droplet fluorescence, 18-24 h; for cell number change: measured here: cell count max response, cells fed with added oleic acid
In short: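 Drosophila S3 cells loaded with oleic acid (400 uM, as added) and compounds at several concentrations; lipid droplets imaged by 488-nm laser-scanning cytometry, 500–530 nm intensity and object ratio to cell channel. Percent activity normalized to 20 uM Triacsin C.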

[1] = measured here: cell number channel AC50, cells fed with added oleic acid
[2] = measured here: lipid fluorescence (Fed channel) AC50, cells fed with added oleic acid

Compound | cell number change | AC50 [1] | AC50 [2]
CN(CC(=O)Nc1c(Cl)cccc1Cl)C(=O)c1cccc(S(=O)(=O)NCc2ccccc2)c1 | 61.3% | 10.3 µM [rising, partial curve] | –
CCOC(=O)Cn1nc(C)c2c1CCCC2=O | -16.6% | – | –
Cc1sc2c(c1C)c(=O)nc1scc(CC(=O)O)n12 | 28.6% | – | –
O=C(NNC(=O)c1ccc(Cl)cc1Cl)Nc1ccccc1 | -14.1% | 3.66 µM [falling, single point] | –
CC(=O)NCCNC(=O)[C@H](Cc1ccccc1)NC(=O)c1cccs1 | 13.2% | – | –
Cc1cc(NC(=S)Nc2ccccc2)ccc1Br | -36.4% | 0.206 µM [falling, full curve] | 0.0058 µM [falling, full curve, poor fit]
O=C(NNC(=S)Nc1ccccc1Cl)c1ccccc1Cl | 0.54% | – | –
COc1ccc(Cl)cc1Nc1nc(-c2sc(NC(=O)c3ccco3)nc2C)cs1 | -67.8% | 18.4 µM [falling, partial curve] | 8.2 µM [falling, partial curve]
O=C(OC(C(=O)NCc1cccs1)c1ccccc1Cl)c1ccco1 (stereo not given) | -25.2% | – | –
O=C1OCCN1S(=O)(=O)Nc1ccccc1 | 3.6% | 0.731 µM [rising, single point] | –
N#CCCn1cc(CNCc2ccccc2)c(-c2cccc([N+](=O)[O-])c2)n1 | 13.4% | 6.51 µM [rising, single point] | –
CC(=O)c1c(N2CCOCC2)nc(=S)n(-c2ccccc2)c1C | -0.551% | – | –
O=C(Nc1nc2c(Cl)c(Cl)ccc2s1)C1CC1 | -15.9% | – | –
O=C(CCNS(=O)(=O)c1ccc(Br)cc1)N1CCN(c2ccccc2O)CC1 | 21.1% | – | 9.2 µM [rising, partial curve]
COc1ccc(C2C(C(=O)c3cccs3)=C(O)C(=O)N2c2nnc(C)s2)cc1OC (stereo not given) | 128% | – | –
Nc1ccc(S(=O)(=O)NC2(C(F)(F)F)NC(=O)N(c3ccccc3F)C2=O)cc1 (stereo not given) | 1.28% | 1.64 µM [rising, partial curve, poor fit] | –
Cc1ccccc1CNC(=O)C1CCN(c2nnc(N3CCCC3=O)s2)CC1 | 11.2% | – | 0.00461 µM [rising, full curve, poor fit]
COc1ccc(C(=O)N2CCOC2CNC(=O)C(=O)NCc2ccc(Cl)cc2)cc1 (stereo not given) | 2.96% | – | –
Cc1cccc(-n2c(O)c(C=NC3CCS(=O)(=O)C3)c3ccccc3c2=O)c1C (stereo not given) | 25.8% | – | 16.4 µM [rising, single point]
O=C(CCS(=O)(=O)c1cccc2nonc12)NC1CCCCCC1 | 13.4% | – | 4.61 µM [rising, partial curve]
COc1ccc(CCNC(=O)c2cccc(S(=O)(=O)NC(C)c3ccccc3)c2)cc1 (stereo not given) | 3.01% | 0.411 µM [falling, single point] | –
O=C(Nc1ccc(Cl)cc1N1CCOCC1)C1CCCO1 (stereo not given) | -1.38% | – | 29.1 µM [falling, single point]

Three entries from above in a different format.
Compound	cell number change	AC50 [1]	AC50 [2]
O=C(NNC(=O)c1ccc(Cl)cc1Cl)Nc1ccccc1	-14.1%	3.66 µM [falling, single point]	–
CC(=O)NCCNC(=O)[C@H](Cc1ccccc1)NC(=O)c1cccs1	13.2%	–	–
Cc1cc(NC(=S)Nc2ccccc2)ccc1Br	-36.4%	0.206 µM [falling, full curve]	0.0058 µM [falling, full curve, poor fit]

Additional entries follow:

Compound | cell number change | AC50 [1] | AC50 [2]
O=C(CSCc1cc(=O)n2ccsc2n1)Nc1ccc(F)cc1 | -15.3% | – | 6.51 µM [rising, partial curve, poor fit]
CCOC(=O)N=Nc1c(O)n(Cc2ccccc2)c2ccccc12 | -7.9% | – | 0.461 µM [falling, single point]
CC(=O)Nc1cccc(NC(=O)c2cccc3cccnc23)c1 | 2.25% | – | –
COc1cc(-c2nc(C(=O)NC3CCCCC3)cc3c2[nH]c2ccccc23)cc(OC)c1OC | – | – | 5.17 µM [falling, full curve]
CCOC(=O)CNc1ncc([N+](=O)[O-])cc1C#N | 12.2% | – | 0.146 µM [rising, full curve, poor fit]
CCCSCCCNC(=O)CN1C(=O)COc2ccc(S(=O)(=O)N3CCCC3)cc21 | 6.57% | – | 29.1 µM [rising, single point]
COCCN(C(=O)c1cccc(OC)c1)c1nnc(-c2ccncc2)s1 | 20.6% | – | 18.4 µM [rising, single point]
COc1cc(C(=O)Nc2nc(-c3ccc(F)cc3)cs2)ccc1OCC(=O)N1CCOCC1 | -32.3% | 6.51 µM [rising, partial curve, poor fit] | –
COc1ccccc1N(C)S(=O)(=O)c1ccc(C(=O)OCC(=O)N2CCC2)cc1 | 22.8% | 0.00461 µM [falling, full curve, poor fit] | –
CCc1ccc(OCC(=O)Nc2ccc3c(c2)OCCO3)cc1 | 22.5% | – | 29.1 µM [rising, single point]
CC1CCN(CC(O)Cn2c3ccccc3c3ccccc32)CC1 (stereo not given) | 0.549% | – | 16.4 µM [rising, partial curve]
COc1cc(NC(=O)C2=CC(c3ccco3)=NS(=O)(=O)N2C)cc(OC)c1OC | – | – | 1.64 µM [rising, single point]
Cc1ccc(S(=O)(=O)N2CCN(CC3CC4C=CC3C4)CC2)cc1 (stereo not given) | 25.7% | – | –
CC12COC3(C(=O)Nc4ccc(F)cc4)CC1CCC32C (stereo not given) | -23.5% | – | 29.1 µM [falling, single point]
O=C1c2ccccc2NC(c2c(Cl)cccc2Cl)N1Cc1ccccc1 (stereo not given) | 6.83% | – | 29.1 µM [rising, single point]
CC1CC(C)CN(CC(=O)NC(c2ccccc2)c2ccccc2)C1 (stereo not given) | -34.4% | 29.1 µM [falling, single point] | 32.6 µM [falling, single point]
O=C(COC(=O)c1ccccc1C(=O)c1ccccc1)Nc1cccc([N+](=O)[O-])c1 | 18.4% | – | 0.146 µM [falling, full curve, poor fit]
CC(NC(=O)Nc1cccc(Cl)c1)C(c1cccs1)N1CCCC1 (stereo not given) | 12.8% | – | 16.4 µM [falling, single point]
COc1ccc(Cc2c(O)nc[nH]c2=O)cc1 | -43.1% | 18.4 µM [falling, single point] | –
COc1ccc(N(CC(=O)N/N=C/c2ccc(OC)cc2OC)S(=O)(=O)c2ccccc2)cc1 | – | – | 4.61 µM [rising, single point]
Cn1nc(CC(=O)Nc2ncc(Br)s2)c2ccccc2c1=O | -24.2% | – | 25.9 µM [falling, single point]
Cc1nc2ccccc2c2oc(C(=O)NCC3COc4ccccc4O3)cc12 (stereo not given) | -2.28% | – | 0.291 µM [rising, full curve, poor fit]

Compound | cell number change | AC50 [1] | AC50 [2]
CCc1ccccc1S(=O)(=O)c1c(C)cc(C)nc1Cl | 3.52% | – | 0.517 µM [falling, single point]
CN(c1ccccc1)S(=O)(=O)c1ccc(C(=O)NCc2ccccc2F)cc1 | – | – | 10.3 µM [falling, partial curve]
NC(=O)CSc1nc2sc(-c3ccccc3)cc2c(=O)n1N | -16.1% | – | 23.1 µM [falling, partial curve, poor fit]
CS(=O)(=O)c1ccccc1C(=O)Nc1cc(Cl)ccc1-n1cncn1 | 25.3% | – | 1.84 µM [rising, partial curve, poor fit]
CN(C)CCNc1c2c(c(C#N)c3nc4ccccc4n13)CCCC2 | -0.919% | – | 0.58 µM [falling, partial curve, poor fit]
CCCn1c(=O)[nH]c(=O)c2c1nc(-c1cccs1)n2CCOC | – | – | 1.46 µM [rising, single point]
Cc1cc(C(=O)OCC(=O)N2CCOCC2)ccc1[N+](=O)[O-] | -21.5% | – | 5.8 µM [rising, single point]
O=C(NCC(=O)N1CCN(C(=O)c2ccco2)CC1)c1ccccc1 | 12.7% | – | –
CCOC(=O)C(C)Sc1ncc(-c2ccc(Cl)cc2)cn1 (stereo not given) | 8.58% | – | 0.366 µM [rising, full curve]
CCC1=C(OC(=O)c2ccccc2)C(C)(C)C(c2ccccc2)OC1=O (stereo not given) | 16.1% | – | 0.651 µM [falling, full curve]
CCc1cc2c(CN3CCN(C)CC3)cc(=O)oc2cc1O | 0.357% | – | 2.06 µM [falling, partial curve]
N/C(=N\N=C/c1ccc(Br)cc1)N/N=C\c1ccc(Br)cc1 | -2% | – | –
CCOc1cc(C(=O)Nc2ccc3c(c2)OCO3)ccc1OCCOc1ccccc1Cl | 36.5% | 0.00517 µM [rising, full curve, poor fit] | 4.11 µM [rising, partial curve, poor fit]
Cn1c(=O)c2c(nc(N/N=C/c3ccc(OC(=O)c4ccco4)cc3)n2Cc2ccccc2Cl)n(C)c1=O | -22% | 1.84 µM [falling, partial curve, poor fit] | –
COc1ccc(CN2C(=O)C(CC(C)C)Nc3ncnc(N4CCN(c5ccccc5)CC4)c32)cc1 (stereo not given) | 14.9% | – | 16.4 µM [rising, partial curve, poor fit]
Cc1nc(SCC(=O)c2ccccc2)n[nH]1 | 5.62% | 4.61 µM [falling, partial curve, poor fit] | 18.4 µM [falling, partial curve]
Cc1cc(S(=O)(=O)N2CCOCC2)ccc1OCC(=O)Nc1ccccc1C(F)(F)F | 47.4% | 20.6 µM [rising, partial curve, poor fit] | –
O=C(CCCCl)N1CCc2[nH]c3ccccc3c2C1 | -2.2% | – | 0.00461 µM [rising, full curve, poor fit]
O=C(CCNS(=O)(=O)c1cccs1)N1CCN(c2ccc(F)cc2)CC1 | 14.3% | – | –
Cc1cccc(-c2noc(CCCC(=O)NC3CCCC3)n2)c1 | -7.89% | – | 0.631 µM [rising, full curve, poor fit]
O=C(O)C(Nc1nc(C(F)(F)F)nc2ccccc12)c1ccccc1 (stereo not given) | -5.25% | – | –
